# Hit rate of the full screen: of about 1,900 compounds, about 550 (29%) were called active. Cut-off read from the data, not from the text of the source: active = inhibition above about 40%; inactive = the rest. This is a selection; strong and weak results do not stand in their true shares.
# Sequences of proteins named here, by UniProt entry; tags and fusion partners are left off.
# UniProt O00487, whole entry, looked up: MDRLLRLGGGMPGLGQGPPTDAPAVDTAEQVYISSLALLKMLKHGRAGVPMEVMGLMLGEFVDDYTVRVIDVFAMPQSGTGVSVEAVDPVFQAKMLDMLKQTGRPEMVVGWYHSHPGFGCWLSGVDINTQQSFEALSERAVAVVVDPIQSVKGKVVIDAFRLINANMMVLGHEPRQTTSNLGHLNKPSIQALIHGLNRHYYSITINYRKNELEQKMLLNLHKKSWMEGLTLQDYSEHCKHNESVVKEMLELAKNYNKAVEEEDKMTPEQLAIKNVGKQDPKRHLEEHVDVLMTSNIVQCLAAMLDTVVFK
# Biological target: 26S proteasome non-ATPase regulatory subunit 14 (Homo sapiens) (UniProt O00487)
# Experiment: inhibition of 26S proteasome subunit Rpn11 – biochemical, fluorescence polarization, single concentration, confirmation (AID 602318)
# Conditions: purified human 26S proteasome, Ub4-pepOG fluorescence polarization; at 20 µM; active compounds read high
row,Compound,inhibition
1,Cc1cccc(N2C(=O)NC(=O)/C(=C\c3cnn(-c4ccccc4)c3)C2=O)c1,inactive: 1.59%

# From PubChem BioAssay AID602318 (Sanford-Burnham Center for Chemical Genomics, 2012)
